# Experimental data taken from PubChem BioAssay AID720533 (National Center for Advancing Translational Sciences (NCATS), 2013).
# Where “and” joins values, the source holds several entries; their conditions need not be identical. Identical values can stand only once. In all, about 18,000 compounds went through this assay and about 750 (4.2%) were called active. Inconclusive results, whose numbers are uncertain, are shown with a selection of clear calls. Calls come from the whole dose curve; tested in HEK293 cells. Potencies of inconclusive entries are doubtful fits and often do not repeat.
# Test: qHTS for Inhibitors of binding or entry into cells for Lassa Virus
# Settings: Lassa virus pseudotyped entry inhibition, cell-based qHTS; activity change, negative = inhibition: at 49.2 µM (top of the series) unless noted
# % is set by controls: 0 for no effect and ±100 for the full control effect; potency is the fitted concentration of half-maximal effect.
Structure (SMILES),Potency,"activity change, negative = inhibition"
CS(=O)(=O)Nc1ccc(Cc2noc(-c3ccc4[nH]cc(CCN)c4c3)n2)cc1,"inconclusive: 14.1 µM [inhibitor, partial curve]",–
c1ccc2sc(C3(NCC4CC4)CCCCC3)cc2c1,"inconclusive: 35.5 µM [inhibitor, single point]",–
O=S(=O)(O)c1ccc2c(c1)-c1nc-2nc2[nH]c(nc3nc(nc4[nH]c(n1)c1ccc(S(=O)(=O)O)cc41)-c1ccc(S(=O)(=O)O)cc1-3)c1ccc(S(=O)(=O)O)cc21,"inconclusive: 7.94 µM [inhibitor, partial curve]",–
CC(=O)N1CCC[C@H]1C(=O)NCC1Cc2cc(-c3cccc(OC(F)(F)F)c3)ccc2O1 (stereo partly drawn),inactive,–
Nc1nc(N)c2nc(-c3ccccc3)c(N)nc2n1,"inconclusive: 12.6 µM [inhibitor, single point] and inconclusive: 35.5 µM [inhibitor, single point]",–
C(#CCN1CCCC1)CN1CCCC1,"inconclusive: 14.1 µM [inhibitor, single point]",–
CCCCOc1ccc(C(=O)CCN2CCCCC2)cc1,inactive,–
COc1cccc(O)c1O,"inconclusive: 35.5 µM [inhibitor, single point]",–
CC[C@@H](C(=O)[C@@H](C)[C@@H](O)[C@H](C)[C@@H]1O[C@@H]([C@@H](CC)C(=O)O)CC[C@@H]1C)[C@H]1O[C@]2(C=C[C@@H](O)[C@]3(CC[C@@](C)([C@H]4CC[C@](O)(CC)[C@H](C)O4)O3)O2)[C@H](C)C[C@@H]1C,active: 3.16 µM,–
Nc1nc(NCC2CCC(CNS(=O)(=O)c3cccc4ccccc34)CC2)nc2ccccc12 (stereo not drawn),"inconclusive: 25.1 µM [inhibitor, single point] and inactive",–
Cc1ccc2c(c1)CN(C(=O)CC(c1ccccc1)c1ccco1)CC(C)O2 (stereo not drawn),inactive,–
Cc1ccc([C@H]2C[C@@H](n3cc(C4CC4)nn3)[C@H](O)CN2C(=O)C2CCCCC2)cc1,–,inconclusive: -35.6% [inhibitor]
NS(=O)(=O)c1ccc(Nc2ncc(-c3ccccc3)o2)cc1,inactive,–
COc1ccc(-c2cc(=O)c3c(OC)c(OC)c(OC)c(OC)c3o2)cc1OC,"inconclusive: 35.5 µM [inhibitor, single point]",–
CC[C@@H]1C(c2cccc(C)c2)=NN(c2ccccc2)[C@H]1C(=O)N1CCOC1=O,"inconclusive: 14.1 µM [inhibitor, partial curve]",–
O=C(C1CCCCC1)N1C[C@@H](O)[C@@H](n2cc(-c3ccc(F)cc3)nn2)C[C@@H]1c1ccccc1,"inconclusive: 35.3 µM [inhibitor, single point]",–
CC(=O)c1ccc(-c2c(C)cc3oc(=O)cc(-c4ccccc4)c3c2C)cc1,"inconclusive: 8.91 µM [inhibitor, partial curve]",–
COC(=O)c1cc(CNC(=O)c2cccc3ccccc23)cc(NC(=O)c2ccccc2OC)c1,"inconclusive: 11.2 µM [inhibitor, partial curve]",–
CS(=O)(=O)OCCCNCCCOS(C)(=O)=O,inactive,–
COc1ccc(-c2cc(=O)c3c(OC)c(OC)c(OC)c(OC)c3o2)cc1,"inconclusive: 12.6 µM [inhibitor, partial curve]",–

Structure (SMILES),Potency,"activity change, negative = inhibition"
CCCCCCN1C[C@H](O)[C@@H](n2cc(C3CC3)nn2)C[C@H]1c1ccc(Cl)cc1,inactive,–
CCCCCCCC[N+](C)(C)CCCCCCCC,"inconclusive: 14.1 µM [inhibitor, partial curve] and inconclusive: 12.6 µM [inhibitor, partial curve]",–
COCc1ccc(CN2CCOc3c(cc(-c4ccc(SC)cc4)cc3OC)C2)o1,"inconclusive: 20 µM [inhibitor, partial curve, poor fit]",–
COc1ccc([C@]23Cc4cc(OC)c(OC)cc4[C@H](O2)C2=C(CCCC2=O)O3)cc1,–,inactive: 2.71% [at 8.59 µM]
Cc1ccc(S(=O)(=O)N2CCC(=O)N([C@H](COCc3cccc(C(F)(F)F)c3)Cc3ccccc3)CC2)cc1,"inconclusive: 11.2 µM [inhibitor, partial curve]",–
COc1ccccc1N1CCN(c2nc(CNC(=O)c3ccc(C)c(C)c3)nc3ccccc23)CC1,"inconclusive: 2.51 µM [inhibitor, full curve]",–
O=C(Nc1ccc([N+](=O)[O-])cc1Cl)c1cc(Cl)ccc1O,active: 1.26 µM and active: 7.08 µM and active: 1.12 µM,–
Cc1ccc([C@H]2C[C@H](O)[C@@H](n3cc(-c4ccc(F)cc4)nn3)CN2C(=O)C2CCCCC2)cc1,"inconclusive: 25 µM [inhibitor, single point]",–
Cn1cc(C2=C(c3cn(C4CCN(Cc5ccccn5)CC4)c4ccccc34)C(=O)NC2=O)c2ccccc21,"inconclusive: 14.1 µM [inhibitor, partial curve]",–
CCC1OC2(C)C(O)C(/C=C/C=C/C=C/c3oc(=O)cc(OC)c3C)OC1(C)C2OC(C)=O (stereo not drawn),"inconclusive: 0.316 µM [inhibitor, full curve]",–
CN(Cc1cnc2nc(N)nc(N)c2n1)c1ccc(C(=O)NC(CCC(=O)O)C(=O)O)cc1 (stereo not drawn),"inconclusive: 0.501 µM [inhibitor, full curve]",–
O[C@@H]1C[C@H](c2ccccc2)N(Cc2cccs2)C[C@@H]1n1cc(C2CC2)nn1,inactive,–
O=S(=O)(O)c1ccc(Nc2ncnc3c2ncn3[C@@H]2O[C@H](CO)[C@@H](O)[C@H]2O)cc1,inactive,–
CC(C)N1C[C@@H](NCc2ccccc2O)C[C@H]1C(=O)N1CCN(c2cccc(C(F)(F)F)c2)CC1,"inconclusive: 22.4 µM [inhibitor, single point]",–
c1ccc(-c2ccc(OCCN3CCCC3)cc2)cc1,"inconclusive: 35.5 µM [inhibitor, partial curve, poor fit]",–
CCCCCCCCCCCCCC(=O)O[C@@H]1[C@@H](C)[C@@]2(O)[C@H](C=C(CO)C[C@]3(O)C(=O)C(C)=C[C@@H]23)[C@@H]2C(C)(C)C12OC(C)=O (stereo partly drawn),"inconclusive: 10 µM [inhibitor, partial curve]",–
COc1ccc(-c2ccc3cc(C(=O)O)ccc3c2)cc1C12CC3CC(CC(C3)C1)C2,"inconclusive: 10 µM [inhibitor, full curve]",–
C[C@@]12C(=O)OC(=O)[C@@]1(C)[C@@H]1CC[C@@H]2O1,inactive,–
CCN(CC)Cc1ccc(Nc2nccc(-c3cnn4ncccc34)n2)cc1,"inconclusive: 0.0397 µM [inhibitor, full curve, poor fit]",–
Oc1cc2c(cc1O)[C@H]1c3ccccc3CN[C@H]1CC2,"inconclusive: 35.5 µM [inhibitor, single point] and inactive",–

Structure (SMILES),Potency,"activity change, negative = inhibition"
CC(CC(C#N)(c1ccccc1)c1ccccc1)N(C)C (stereo not drawn),"inconclusive: 50.1 µM [inhibitor, partial curve, poor fit]",–
CN(C(=O)CCCOc1ccc2[nH]c(=O)ccc2c1)C1CCCCC1,"inconclusive: 31.6 µM [inhibitor, partial curve]",–
Nc1nonc1-c1nc2cnccc2n1C1CCCCC1,inactive,–
OCc1cc([C@@H](O)CNCCCCCCOCCCCc2ccccc2)ccc1O,"inconclusive: 28.2 µM [inhibitor, partial curve]",–
CCC(=O)OCC(=O)[C@@]1(OC(=O)CC)[C@@H](C)C[C@H]2[C@@H]3CCC4=CC(=O)C=C[C@]4(C)[C@@]3(F)[C@@H](O)C[C@@]21C,"inconclusive: 35.5 µM [inhibitor, single point]",–
CCC1CN(CCNC(=O)c2ccnc(Cl)c2)Cc2cc(OC)ccc2O1 (stereo not drawn),"inconclusive: 15.8 µM [inhibitor, single point]",–
O[N+]1=CC=CCC1=S.On1ccccc1=S.[Zn],active: 3.55 µM,–
COC(=O)N[C@H](CC(C)=O)c1ccc(F)cc1,–,inactive: 1.39% [at 8.59 µM]
CC1(C)C(=O)C=C[C@@]2(C)C1CC(O)[C@]1(C)C2CC[C@@]2(C)C(c3ccoc3)OC(=O)C3O[C@]312 (stereo partly drawn),"inconclusive: 35.5 µM [inhibitor, single point]",–
Cc1ccc2[nH]c(O)c(N=Nc3ccc(S(N)(=O)=O)cc3)c2c1,"inconclusive: 3.97 µM [inhibitor, full curve, poor fit]",–
CCOc1ccc(-c2nc3ccc(-c4nc5ccc(N6CCN(C)CC6)cc5[nH]4)cc3[nH]2)cc1,"inconclusive: 35.5 µM [inhibitor, single point]",–
CC1C(=O)N(Cc2cn(CC3CCCCC3)nn2)CCS(=O)(=O)N1Cc1ccc(-c2cccc(N(C)C)c2)cc1 (stereo not drawn),"inconclusive: 9.95 µM [inhibitor, partial curve, poor fit]",–
CC(C)Cc1cc(C(=O)NCC2Cc3cc(F)cc(-c4ccccn4)c3O2)no1 (stereo not drawn),inactive,–
Cc1ccc2c(c1)Cc1c(C(=O)NN3CCCCC3)nn(-c3ccc(Cl)cc3Cl)c1-2,"inconclusive: 35.5 µM [inhibitor, single point]",–
COC1=C[C@H](C(=O)NC2CCN(Cc3ccccc3)CC2)[C@@]2(C)Cc3ccccc3[C@@H]2CC1=O,–,inactive: 28% [at 8.59 µM]
CC(=O)N(O)C/C=C/c1cccc(Oc2ccccc2)c1,"inconclusive: 17.8 µM [inhibitor, single point]",–
CCC(C)(C)c1ccc(CC(C)CN2C[C@@H](C)O[C@@H](C)C2)cc1 (stereo partly drawn),"inconclusive: 25.1 µM [inhibitor, partial curve]",–
COc1ccc2ncn(-c3cc(OC(C)c4ccccc4C(F)(F)F)c(C(N)=O)s3)c2c1 (stereo not drawn),"inconclusive: 0.223 µM [inhibitor, full curve, poor fit]",–
